Consider 60 compounds from PubChem BioAssay AID2685 (National Center for Advancing Translational Sciences (NCATS), 2010).

The test can be described thus: qHTS Assay for Lipid Storage Modulators in Drosophila S3 Cells.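 As to cell number change: cells counted by Cell Tracker Red CMTPX staining in the red channel.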 The conditions noted are these: BODIPY lipid droplet fluorescence, 18-24 h; for cell number change: measured here: cell count max response, cells fed with added oleic acid. Put shortly:
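Drosophila S3 cells loaded with oleic acid (400 uM, as added) and compounds at several concentrations; lipid droplets imaged by 488-nm laser-scanning cytometry, 500–530 nm intensity and object ratio to cell channel. Percent activity normalized to 20 uM Triacsin C.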
A general note: Quantitative high-throughput screening tests each substance at several concentrations.

Setting [1] is: measured here: lipid fluorescence (Fed channel) AC50, cells fed with added oleic acid.
Setting [2] is: measured here: cell number channel AC50, cells fed with added oleic acid.

SMILES strings stand for the structures. The list shows a part of the results. The main result of the screen is listed elsewhere. These columns were measured beside it and carry no call. Most of these compounds were active or inconclusive in the main read-out, so they are no random draw. Potencies come from curve fits of mixed quality, noted in brackets.

`CC(C)n1nc(C(=O)Nc2cccc(S(=O)(=O)N3CCOCC3)c2)c2ccccc2c1=O`: the cell number change stood at 3.55%. In addition, the AC50 under setting [1] was 29.1 µM [falling, single point].
As for `COc1ccc(S(=O)(=O)NCc2cccnc2)cc1C(=O)NC1CCCCC1`, the cell number change was -2.76%.
In the case of `O=C(COC(=O)CNC(=O)c1ccco1)Nc1ncc(Cl)cc1Cl`, the cell number change is -22.9%. In addition, the AC50 under setting [1] was 0.13 µM [falling, full curve].
As for `Nc1c(C(=O)N2CCCCC2)sc2nc3c(cc12)CCCC3`, the cell number change came out at 34.9%. For the same compound, under setting [2], the half-maximal activity concentration (AC50) was 0.0326 µM [rising, full curve, poor fit].
Turning to `O=C(NCCCC1CCCC1)C1CCC(=O)N(Cc2ccc(Cl)cc2)C1` (stereo not given), the cell number change is -26.1%. Moreover, the AC50 under setting [2] is 0.731 µM [falling, single point]. In addition, under setting [1], the AC50 is 8.2 µM [falling, partial curve, poor fit].
Turning to `CCN(CC)C(=O)c1sc2nc(Cc3ccccc3)[nH]c(=O)c2c1C`, the cell number change was 12.3%.
For the compound `Cc1cccc(OCc2nnc(SCC(=O)c3ccccc3)o2)c1`, the cell number change is 4.21%. Also, the AC50 under setting [1] is 1.84 µM [rising, full curve, poor fit].
Turning to `Cc1ccc(C(C)NC(=O)c2ccc3c(c2)OCO3)cc1C` (stereo not given), the cell number change was 19.9%. Besides, the AC50 under setting [1] was 29.1 µM [rising, single point].
With `Cc1ccc(C(=O)NCc2ccc3c(c2)OCO3)cc1Cl`, the cell number change was -1.59%. Also, the concentration at half-maximal activity (AC50) under setting [1] was 29.1 µM [rising, single point].
Turning to `COc1ccc(/C=N/NC(=O)c2ccc(-c3ccccc3)cc2)cc1O`, the cell number change was -38.9%. Besides, the AC50 under setting [2] was 25.9 µM [falling, partial curve, poor fit]. The AC50 under setting [1] is 1.03 µM [falling, full curve, poor fit].
As for `O=C1c2ccccc2C(=O)N1CCCc1nc2ccccc2c(=O)n1Cc1ccco1`, the AC50 under setting [2] is 6.51 µM [rising, single point].
Take `N#Cc1ccccc1`: the cell number change stood at 11.4%.
`CCOc1ccc2oc(=O)cc(C)c2c1`: under setting [2], the AC50 is 4.11 µM [rising, partial curve].
Take `CC(Oc1ccc2c3c(c(=O)oc2c1)CCCC3)C(=O)NCc1ccccn1` (stereo not given): the cell number change was -6.78%. Under setting [1], the AC50 is 29.1 µM [falling, single point].
On to `CC(C)(C)C1CCc2onc(C(=O)Nc3cccnc3)c2C1` (stereo not given), for which the cell number change is -41.1%. Also, the AC50 under setting [2] is 29.1 µM [falling, single point].
As to `CCCSc1nnc2nc3c(nn12)c1ccccc1n3C`, the cell number change was determined as 38.5%. Also, the AC50 under setting [2] is 16.4 µM [rising, single point].
Consider `Cc1noc(C)c1C(=O)N1CCN(c2ccccc2O)CC1`, for which the cell number change was 33.5%. In addition, the AC50 under setting [2] is 8.2 µM [rising, partial curve, poor fit].
Take `Cc1ccc(C)c(S(=O)(=O)N2CCN(CC(=O)Nc3ccc([N+](=O)[O-])cc3)CC2)c1`: the AC50 under setting [2] was 0.58 µM [falling, single point].
As for `COc1ccc2c(c1)Sc1ccccc1N2CCN(C)C`, the cell number change was -23.7%. The AC50 under setting [1] was 0.58 µM [falling, single point].
For `CCC(CO)NCC#Cc1ccccc1` (stereo not given), the cell number change amounted to 104%. In addition, the half-maximal activity concentration (AC50) under setting [1] was 20.6 µM [rising, single point].
On to `COc1ccc(Nc2ccc(S(=O)(=O)N3CCCCCC3)cc2[N+](=O)[O-])cc1`, for which the cell number change is -57.3%. For the same compound, under setting [2], the AC50 was 18.4 µM [falling, single point]. For the same compound, under setting [1], the AC50 was 18.4 µM [falling, single point].
Take `COc1ccc(/C(C)=N/NC(=O)c2sccc2-n2cccc2)cc1`: the cell number change was found to be 2.85%. Also, under setting [1], the AC50 was 0.146 µM [falling, single point].
On to `COCCCN=CC1=C(O)CC(C)(C)CC1=O`, for which the cell number change was -10.7%. Further, under setting [1], the AC50 is 2.91 µM [rising, single point].
In the case of `Cc1[nH]n(-c2ccc(Br)cc2)c(=O)c1/C=N/NC(=O)c1ccccc1`, the cell number change is -41.8%. The half-maximal activity concentration (AC50) under setting [2] was 20.6 µM [falling, single point].
As to `COc1ccc(OC)c2[nH]c(=O)c(CCNC(=O)c3cc4ccccc4o3)cc12`, the AC50 under setting [2] was 0.731 µM [rising, single point].
Consider `COC(=O)c1cccc(NC(=O)/C=C/c2ccc([N+](=O)[O-])cc2)c1`, for which the cell number change came out at 6.66%. Further, the AC50 under setting [1] is 6.51 µM [rising, partial curve, poor fit].
Turning to `Nc1cc(=O)[nH]c(SCC(=O)Nc2cc(Cl)cc(Cl)c2)n1`, the half-maximal activity concentration (AC50) under setting [1] is 0.116 µM [falling, full curve, poor fit].
`CC(=O)c1ccc(OCCCC(=O)Nc2ccc(S(=O)(=O)N3CCOCC3)cc2)cc1`: the cell number change is 38.7%. Moreover, the AC50 under setting [2] was 8.2 µM [rising, partial curve, poor fit].
For the compound `CCOc1ccc(N2C(=O)Nc3ccccc3C2(O)C(=O)NCc2ccc3c(c2)OCO3)cc1` (stereo not given), the cell number change stood at 17.5%. The AC50 under setting [1] is 29.1 µM [rising, single point].
For the compound `O=C1[C@H]2[C@@H](c3ccc(F)cc3)N3C(=O)N(c4cccc(Cl)c4)C(=O)[C@@]3(Cc3ccc(Cl)cc3)[C@H]2C(=O)N1C1CCCCC1`, the cell number change was found to be 54.4%. Under setting [2], the AC50 is 18.4 µM [rising, partial curve, poor fit].
With `CCN(C1CCS(=O)(=O)C1)S(=O)(=O)c1ccc(OC)c(OC)c1` (stereo not given), the cell number change is -6.7%. Moreover, the half-maximal activity concentration (AC50) under setting [1] is 20.6 µM [falling, single point].
Consider `CC(C)(O)c1nnn(-c2ccccc2)c1C(F)(F)F`, for which the cell number change was -0.625%.
Consider `CCN1/C(=C/C=C/C=C/C=C/c2sc3ccccc3[n+]2CC)Sc2ccccc21`, for which the cell number change is -62.9%. The AC50 under setting [2] is 14.6 µM [falling, partial curve, poor fit]. Besides, the AC50 under setting [1] was 16.4 µM [falling, partial curve].
For `O=c1oc2cc(Br)ccc2n1CSC1=NCCS1`, the cell number change is -50.9%. Moreover, under setting [2], the AC50 was 0.0259 µM [falling, full curve, poor fit].
In the case of `Cc1cccn2c(=O)c(C=O)c(Sc3ncccn3)nc12`, the cell number change is 17.1%.
Regarding `COc1ccc(N(CC(=O)Nc2cccc(N(C)S(C)(=O)=O)c2)S(C)(=O)=O)cc1OC`, the cell number change is 15.5%. The AC50 under setting [1] is 0.411 µM [falling, partial curve].
With `c1cncc(-c2noc(-c3ccc4ccccc4c3)n2)c1`, the cell number change was found to be 13.5%.
Turning to `C=CCOn1c(=O)c(-c2ccc(Br)cc2)[n+]([O-])c2ccccc21`, the cell number change was 34.7%.
`Cc1cccc(-n2nc3c(c2NC(=O)c2ccc4c(c2)OCO4)CS(=O)(=O)C3)c1C`: the cell number change was determined as 4.84%.
Take `CCOC(=O)c1ccc(CNC(=O)c2n[nH]c(=O)c3ccccc23)o1`: the cell number change came to 10.7%. The concentration at half-maximal activity (AC50) under setting [1] is 18.4 µM [rising, partial curve].
`Cc1nn(CC(=O)N(C)C2CCS(=O)(=O)C2)c(C)c1S(=O)(=O)N(C)C` (stereo not given): the cell number change was determined as 8.08%. Moreover, the AC50 under setting [2] was 0.58 µM [falling, single point].
For the compound `COC(=O)[C@H](Cc1ccccc1)NC(=O)NCCc1ccc(S(N)(=O)=O)cc1`, the cell number change was -52.7%. In addition, under setting [2], the AC50 is 16.4 µM [falling, single point]. Further, the AC50 under setting [1] is 29.1 µM [falling, single point].
Take `COc1cc(/C=N/NC(=O)c2c(-c3ccccc3)noc2C)ccc1O`: the cell number change was -21.4%. Besides, the AC50 under setting [1] is 0.651 µM [rising, single point].
Regarding `CCn1cc(C(=O)NCCCN2CCCC(C)C2)c(=O)c2cc(S(=O)(=O)N3CCc4ccccc4C3)ccc21` (stereo not given), the cell number change was 4.36%.
`C=CCSc1nccc(-c2cc(Cl)sc2Cl)n1`: the cell number change turned out to be 106%. Further, the AC50 under setting [2] is 20.6 µM [rising, partial curve]. Moreover, the AC50 under setting [1] is 1.64 µM [falling, partial curve].
For `COc1cc(S(=O)(=O)N2CCC(O)(c3cccc(C(F)(F)F)c3)CC2)ccc1-n1cnnn1`, the cell number change is 180%. Besides, under setting [2], the AC50 was 7.31 µM [rising, partial curve].
In the case of `O=C(Nc1nnc(SCc2ccc(F)cc2)s1)C1=COCCO1`, the cell number change was -2.63%. Besides, the AC50 under setting [1] is 1.46 µM [falling, partial curve, poor fit].
For the compound `COCCN1Cc2cccc(C(=O)NCCCN3CCCC3=O)c2C1=O`, the cell number change is 3.94%. Further, the AC50 under setting [1] was 1.64 µM [falling, single point].
Take `Cc1nnc(NC(=O)CSc2nnc(C)n2-c2ccc(F)cc2)s1`: the AC50 under setting [1] was 1.84 µM [rising, single point].
In the case of `CC(C)(C)NC(=O)c1ccc2c(c1)CCO2`, the cell number change is -47.8%. Moreover, under setting [1], the AC50 was 32.6 µM [falling, partial curve, poor fit].
As to `Cc1cc(C2CC(=O)Nc3ccccc3S2)c(C)s1` (stereo not given), the cell number change came to 2.91%. Further, the AC50 under setting [1] was 1.16 µM [rising, partial curve].
In the case of `COCCC(=O)N1CCC(Oc2ccc(C(=O)N3C[C@H]4CC[C@H]3C4)cc2)CC1`, the cell number change was 7.66%. Also, the AC50 under setting [2] is 6.51 µM [rising, single point].
Regarding `S=C(NCCc1ccccn1)Nc1ccc(Cl)c(Cl)c1`, the cell number change was -10.8%. Further, the AC50 under setting [2] is 6.51 µM [falling, single point]. Further, the AC50 under setting [1] was 6.51 µM [falling, single point].
On to `O=C(O)c1cccc(N2C(=O)CSC2=S)c1`, for which the cell number change is 29.6%. In addition, the AC50 under setting [1] was 16.4 µM [rising, partial curve].
Regarding `CC(C)CCNC(=O)c1ccc2c(SCC(=O)O)c3c(nc2c1)CCC3`, the cell number change is -11.5%. Further, the concentration at half-maximal activity (AC50) under setting [1] was 2.06 µM [falling, partial curve].
Consider `COc1ccccc1CCNC(=O)C(=O)NCCC1CCCCN1S(=O)(=O)c1cccs1` (stereo not given), for which the cell number change was -35.8%. Further, under setting [2], the AC50 was 32.6 µM [falling, partial curve, poor fit]. Besides, under setting [1], the AC50 is 6.51 µM [falling, single point].
As to `O=C(NCc1ccco1)C12CC3CC(C1)CC(C(=O)NCc1ccco1)(C3)C2`, the cell number change is -17.6%. Further, the AC50 under setting [1] is 25.9 µM [falling, single point].
Take `COc1cc(C(=O)OCC(=O)Nc2c(C)n(C)n(-c3ccccc3)c2=O)c([N+](=O)[O-])cc1OC`: the cell number change is -32.7%. In addition, the AC50 under setting [2] is 32.6 µM [falling, single point]. Also, the AC50 under setting [1] was 0.461 µM [rising, single point].
With `CC(=O)c1ccc(NC(=S)NCCc2ccccn2)cc1`, the cell number change was -40.2%. The concentration at half-maximal activity (AC50) under setting [2] is 0.092 µM [falling, full curve, poor fit]. Also, under setting [1], the concentration at half-maximal activity (AC50) was 0.146 µM [rising, full curve, poor fit].
Consider `CCC(C)c1c(O)nc(SCC(=O)N2CCOCC2)[nH]c1=O` (stereo not given), for which the cell number change is 11.7%. Besides, the half-maximal activity concentration (AC50) under setting [1] was 0.146 µM [falling, full curve, poor fit].

A word on the AC50: it is the concentration at which the activity in the assay is half-maximal.
